# At least one peptide structure holds a part that was inferred or is arguable (an end, a ring closure or a residue). At least one compound was matched to its structure with a doubt left. Where a SMILES comes first, the peptide text is derived from it. [ ]: non-standard residue; d: D form. pGlu = O=C1CC[C@@H](C(=O)O)N1; Pip = O=C(O)[C@@H]1CCCCN1; Thz = O=C(O)[C@@H]1CSCN1; Nva = CCC[C@H](N)C(=O)O
# Tests used:
# [1] = system: Haloperidol-induced catalepsy; experiment: Inhibition of Haloperidol-induced catalepsy on rats; type: in vivo, rat (male Wistar); conditions: Haloperidol 40 mg/kg s.c., test compound i.v. 120 min later, probit analysis, at the time given
# Procedure: (1) Inhibition of Haloperidol-induced catalepsy on rats (see J. Delay and P. Deniker: Compt. Rend. Congr. Med. Alenistes Neurologistes, 19, 497, Luxembourg, 1952)
# The tests were performed on male Wistar rats weighing 160 to 180 g.
# 40 mg/kg of 4-(p-chlorophenyl)-1-(3-/p-fluorobenzoyl/-propyl)-piperidin-4-ol (Haloperi dol) were administered subcutaneously into the animals, and 120 minutes after this treatment the animals were checked for the appearance of catalepsy. The rats were divided into groups of 10 animals each, and treated intravenously with TRH or the new TRH analogues. The animals belonging to the control group received physiological saline. The catalepsy-suspending effects of the individual compounds were determined 15, 30, 60, 90 and 120 minutes after the treatment. The animals that had not changed their position for 30 seconds after placing their fore-paw onto a 7 cm high column were regarded as cataleptic.
# [2] = system: L-Dopa-induced locomotive activity; experiment: Potentiation of locomotive activity induced on mice by L-Dopa; type: in vivo; conditions: compound 20 mg/kg i.p., percent related to TRH; for Potentiation of the locomotive effect of L-Dopa, % after 30': Pargyline 40 mg/kg i.p., L-Dopa 100 mg/kg i.p., 30 min; for Potentiation of the locomotive effect of L-Dopa, % after 60': 60 min; for Potentiation of the locomotive effect of L-Dopa, % after 90': 90 min
# Procedure: (2) Potentiation of locomotive activity induced on mice by L-Dopa (see The Thyroid Axis, Drugs and Behavior, p. 116, A. J. Prage Jr., Raven Press, New York, 1974)
# The tests were performed on groups of 15 male mice each, weighing 18 to 22 g.
# First, the animals were treated intraperitoneally with 40 mg/kg of N-methyl-N-propargyl-benzylamine (Pargyline), and then an intraperitoneal dosage of 20 mg/kg of TRH or a TRH-analogue was introduced, followed by an intraperitoneal dosage of 100 mg/kg of L-Dopa. The locomotive activity of the animals was recorded 30, 60 and 90 minutes after this treatment, and the level of potentiation was expressed in percents related to the results observed with TRH.
# Reserpine hypothermy = experiment: Reserpine hypothermy-reversing effect on mice; type: in vivo; conditions: average of 10 animals; for Reserpine hypothermy reversing effect, rectal temperature obs. time 1 h: 1 hour after 20 mg/kg of the tripeptide; for Reserpine hypothermy reversing effect, rectal temperature obs. time 2 h: 2 hours after 20 mg/kg of the tripeptide; for Reserpine hypothermy reversing effect, rectal temperature res.: 16 hours after reserpine 5 mg/kg i.p., before the tripeptide; for Reserpine hypothermy reversing effect, rectal temperature norm.: baseline prior to administration of reserpine
# Procedure: (3) Reserpine hypothermy-reversing effect on mice (see B. M. Askew: Life Sci. 2, 725-730/1963/)
# The tests were performed on groups of 10 male mice each, weighing 18 to 22 g. Reserpine was administered into the animals in an intraperitoneal dosage of 5 mg/kg, and 16 hours later the animals were treated with 20 mg/kg of TRH or a tripeptide under examination.
# The rectal temperature of the animals was measured prior to the administration of reserpine (marked by "norm." in Table 1), 16 hours after the administration of reserpine (marked by "res." in Table 1), furthermore 1 and 2 hours after the administration of the tripeptide (marked by "obs.time" in Table 1). The data listed in Table 1 are the averages of the temperatures observed on the 10 animals.
# [3] = system: hexobarbital-induced sleeping; experiment: Influencing the duration of sleeping caused by hexobarbital; type: in vivo; conditions: mice, hexobarbital sodium 60 mg/kg i.v., compound 20 mg/kg i.p. 10 min later; control sleeping 38.4 ± 1.36 min
# Procedure: (4) Influencing the duration of sleeping caused by hexobarbital The tests were performed on groups of 10 male mice each. The animals were treated intravenously with 60 mg/kg of hexobarbital sodium ([…]®; Bayer), and 10 minutes later 20 mg/kg of TRH or a tripeptide under examination were administered intraperitoneally into the animals. The sleeping times of the animals were recorded, averages were calculated for the individual groups, and the results were expressed as percents related to the control group.
# ethanol-induced sleeping = experiment: Ethanol narcosis; type: in vivo, CFLP (LATI) mice; conditions: mice, ethanol 4.5 g i.p., compound 20 mg/kg i.p. 10 min later; control sleeping 46.9 ± 2.17 min
# Procedure: (5) Ethanol narcosis (see J. M. Cott et al.: J. Pharm. Exp. Ther. 196, 594/1976/) The tests were performed on groups of 20 CFLP (LATI) mice of both sexes, each weighing 18 to 22 g. 4.5 g of ethanol were introduced intraperitoneally into the animals, and 10 minutes later the animals were treated intraperitoneally with 20 mg/kg of the tripeptide under examination. The sleeping periods of the animals were recorded, averages were calculated for the individual groups, and the results were expressed as percents related to the control group.
# TSH = experiment: Hormonal activity (TSH effect) on rats; type: in vivo, rat (male Wistar); conditions: 20 mg/kg i.v., plasma TSH by radioimmune assay 15 min after treatment, relative activity, TRH = 100%
# Procedure: (6) Hormonal activity (TSH effect) on rats
# The tests were performed on groups of 7 or 8 male Wistar rats each, weighing 200 g. The animals were treated intravenously with 20 mg/kg of TRH or a tripeptide under examination. The TSH reaction of the animals was evaluated 15 minutes after this treatment, by subjecting the blood plasma to radioimmune assay. The relative activities were calculated by the four-point method using a TPA 101 computer, and the activity of TRH was regarded as 100%.
Compound,Inhibition of Haloperidol catalepsy ED50 [1] [mg/kg],"Potentiation of the locomotive effect of L-Dopa, % after 30' [2] [%]","Potentiation of the locomotive effect of L-Dopa, % after 60' [2] [%]","Potentiation of the locomotive effect of L-Dopa, % after 90' [2] [%]","Reserpine hypothermy reversing effect, rectal temperature obs. time 1 h (Reserpine hypothermy) [°C]","Reserpine hypothermy reversing effect, rectal temperature obs. time 2 h (Reserpine hypothermy) [°C]","Reserpine hypothermy reversing effect, rectal temperature res. (Reserpine hypothermy) [°C]","Reserpine hypothermy reversing effect, rectal temperature norm. (Reserpine hypothermy) [°C]","Decrease of sleeping period (% related to the control animals), Hexobarb. [3] [%]","Decrease of sleeping period (% related to the control animals), Ethanol (ethanol-induced sleeping) [%]",TSH effect (TSH) [%]
"CC(C)C[C@H](NC(=O)[C@@H]1CCC(=O)N1)C(=O)N1CCCC[C@H]1C(N)=O [Glp Leu Pip, L-Pyroglutamyl-L-leucyl-L-pipecolic amide] ([pGlu]-Leu-[Pip]-NH2)",38.5,201,89,112,30.7,31.0,24.6,36.4,38,60,7.2
"CC(C)C[C@H](NC(=O)[C@@H]1CCC(=O)N1)C(=O)N1CSC[C@H]1C(N)=O [Glp Leu Tca, L-Pyroglutamyl-L-leucyl-L-thiazolidine-4-carboxylic acid amide] ([pGlu]-Leu-[Thz]-NH2)",31.4,171,142,52,–,–,–,–,39,58,0
"CCC[C@H](NC(=O)[C@@H]1CCC(=O)N1)C(=O)N1CSC[C@H]1C(N)=O [Glp Nva Tca, L-Pyroglutamyl-L-norvalyl-L-thiazolidine-4-carboxylic acid amide] ([pGlu]-[Nva]-[Thz]-NH2)",56,195,147,79,31.4,30.7,–,–,69,51,0
"CCC[C@H](NC(=O)[C@@H]1CCCC(=O)N1)C(=O)N1CSC[C@H]1C(N)=O [Kpc Nva Tca, L-6-Ketopiperidine-2-carbonyl-L-norvalyl-L-thiazolidine-4-carboxylic acid amide]",60.3,103,38,70,30.4,29.0,23.6,36.4,61,48,–

# From patent US4386073A, “Tripeptides acting on the central nervous system and a process for the preparation thereof” (Patentbureau DANUBIA, priority 1979, dated 1983)
